About 6,000 (1.7%) of roughly 350,000 compounds were called active. Inconclusive means that the source gave no clear call. Such entries were picked first, then a sample of the others. No stated cut-off is given here; in the data, active means CPE inhibition above about 20% (passing the limit was not always enough); inconclusive means no clear call, values can overlap the other calls; tested in BHK-21 cells.
Assay: protection of cells from dengue 2 killing – plate reader, single concentration, primary screen (AID 651640);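 further: 0% = median of neutral control wells and 100% = median of positive control wells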
Conditions: DENV2-infected cells, cytopathic effect rescue, at 9.99 µM, active compounds read high
For `COC(=O)[C@@]12CCCN1[C@H](c1ccc(-c3ccccc3)cc1)[C@@H]1C(=O)N(C)C(=O)[C@@H]12`, the CPE inhibition was active: 65.5%. With `C[C@@H](NC(=O)C[C@@H]1C[C@H]2c3cc(NC(=O)c4ccc5c(c4)OCO5)ccc3O[C@H]2[C@H](CO)O1)c1ccccc1` the CPE inhibition was inconclusive: 29.3%. In the case of `Cn1cc(C(=O)C(=O)NC2CCCCC2)c2ccccc21`, the CPE inhibition is reported as inconclusive: 20.8%. With `CN(c1cccc(NC(=O)c2ccc(C(C)(C)C)cc2)c1)S(C)(=O)=O` the CPE inhibition was active: 21.1%. With `C[C@@H]1CN([C@@H](C)CO)C(=O)c2cc(NC(=O)Nc3ccc(C(F)(F)F)cc3)ccc2O[C@@H](C)CCCCO[C@H]1CN(C)C(=O)c1ccccc1` the CPE inhibition was active: 25.6%. In the case of `CN1CCN(NC(=O)/C=C/c2cccc(Cl)c2)CC1`, the CPE inhibition is reported as inconclusive: 46%. In the case of `C[C@@H]1CN([C@H](C)CO)C(=O)c2cc(NC(=O)c3ccncc3)ccc2O[C@@H]1CN(C)S(=O)(=O)c1cccs1`, the CPE inhibition is reported as inconclusive: 28%. In the case of `COc1ccc2c3c([nH]c2c1)[C@@H](CO)N(C(=O)Nc1ccc(F)cc1)CC31CN(Cc2ccc(F)cc2)C1`, the CPE inhibition is reported as active: 31.8%. In the case of `CSc1nc(N)nc(SC2C=CCCC2)c1C#N` (stereo unspecified), the CPE inhibition is reported as inactive: 0.973%. In the case of `CCCc1cc(N2CCOCC2)n2ncc(-c3ccccc3)c2n1`, the CPE inhibition is reported as inactive: 1.13%. In the case of `O=C(COC(=O)C1CCC1)NCc1ccccc1`, the CPE inhibition is reported as inconclusive: 48.5%. In the case of `COC(=O)C1=C(C)N(Cc2ccc(Br)cc2)C(=S)NC1c1cccc(Br)c1` (stereo unspecified), the CPE inhibition is reported as active: 42%. In the case of `Cc1sc2ncnc(N3CCC(C(=O)Nc4ccc(Br)cc4Br)CC3)c2c1C`, the CPE inhibition is reported as inconclusive: 27%. For `Cc1csc(-c2nc3ccccc3n2C(C(=O)NC(C)(C)C)c2ccccc2)c1` (stereo unspecified), the CPE inhibition was active: 22%. With `C[C@H](CO)N1C[C@H](C)[C@@H](CN(C)C)Oc2ncc(-c3cccnc3)cc2C1=O` the CPE inhibition was inconclusive: 24.7%. For `O=C(C[C@H]1CC[C@H]2[C@@H](COC[C@@H](O)CN2Cc2ccc(Oc3ccccc3)cc2)O1)N1CCCCC1`, the CPE inhibition was active: 23.8%. With `COc1cc2ccc(NC(C)=O)cc2cc1OC` the CPE inhibition was inconclusive: 70%. For `CC(C)Cn1c(N)c(C(=O)CSc2nncs2)c(=O)n(C)c1=O`, the CPE inhibition was inconclusive: 36.8%. In the case of `O=C(COc1ccccc1)Nc1ccc(Cl)cn1`, the CPE inhibition is reported as inactive: 1.42%. For `COc1ccc(S(=O)(=O)Nc2ccc3c(c2)C(=O)N([C@H](C)CO)C[C@@H](C)[C@@H](CN(C)Cc2ccccc2)OCCCC[C@@H](C)O3)cc1`, the CPE inhibition was inactive: 1.26%. For `CCO[C@H]1OC(C(N)=O)=C[C@@H](C)[C@@H]1CCCO`, the CPE inhibition was inconclusive: 25.1%. For `COc1ccc(CN(C(=O)c2ccc(C)cc2)c2cccc(N)c2)cc1`, the CPE inhibition was active: 37.9%. With `C[C@@H]1CN([C@@H](C)CO)C(=O)CCCn2nncc2CO[C@@H]1CN(C)C(=O)c1ccccc1` the CPE inhibition was inconclusive: 25.5%. For `CO[C@@H]1CN(C)C(=O)c2ccc(NC(=O)c3ccc4c(c3)OCO4)cc2OC[C@@H](C)N(Cc2ccc3c(c2)OCO3)C[C@H]1C`, the CPE inhibition was inactive: -2.21%. For `C[C@H](CO)N1C[C@H](C)[C@H](CN(C)C(=O)Nc2cccc(C(F)(F)F)c2)OCc2ccccc2-c2c(n(C)c3ccccc23)C1=O`, the CPE inhibition was active: 25.1%. For `CC(=O)N(C)C[C@@H]1Oc2ncc(C#Cc3ccc(F)cc3)cc2C(=O)N([C@H](C)CO)C[C@@H]1C`, the CPE inhibition was active: 28.5%. In the case of `COc1ccc(CC(=O)Nc2ccc(C(C)=O)cc2)cc1`, the CPE inhibition is reported as inactive: -0.433%. For `COc1ccc(NC(=O)N(C)C[C@H]2OCCCC[C@@H](C)Oc3ccc(NS(=O)(=O)c4ccc(Cl)cc4)cc3C(=O)N([C@@H](C)CO)C[C@H]2C)cc1`, the CPE inhibition was inconclusive: 32.8%. For `O=C(c1ccco1)N1CCN(Cc2cn[nH]c2-c2cccc3ccccc23)CC1`, the CPE inhibition was inconclusive: 31.2%. With `CS(=O)(=O)N1C[C@H](O)COC[C@@H]2O[C@H](CC(=O)NCc3ccc(-c4ccccc4)cc3)CC[C@H]21` the CPE inhibition was inactive: 7.11%. For `N#C[C@@H]1[C@H](c2ccccc2-c2cccc(F)c2)[C@H](CO)N1C(=O)NC1CCCC1`, the CPE inhibition was inactive: -14.5%. With `Cc1cc(=O)oc2cc(OCC(=O)OCC(=O)Nc3ccccc3C(C)C)ccc12` the CPE inhibition was inconclusive: 36.9%. In the case of `COc1ccc(NS(=O)(=O)c2cc([N+](=O)[O-])ccc2N/N=C/c2c(C)[nH]c3ccccc23)cc1`, the CPE inhibition is reported as inactive: 5.29%. In the case of `C[C@@H]1CN([C@H](C)CO)C(=O)c2cc(N(C)C)ccc2O[C@@H](C)CCCCO[C@@H]1CN(C)Cc1ccc(C(=O)O)cc1`, the CPE inhibition is reported as inconclusive: 70.5%. For `O=C(NCCCCc1ccccc1)Nc1cccc(F)c1`, the CPE inhibition was inconclusive: 34.9%. For `O=C(O)c1ccc(-c2nc3ccccc3[nH]2)cc1`, the CPE inhibition was inconclusive: 25.1%. In the case of `Cc1sc2ccc3sccc3c2[n+]1C`, the CPE inhibition is reported as inactive: 12.3%. For `CCOC(=O)c1c(CC(C)C)csc1/N=C/C1C(=O)CCCC1=O`, the CPE inhibition was inconclusive: 20.9%. For `COc1ccc(CN(C)CCCn2cnc(C(=O)Nc3ccc(C)c(C)c3)n2)cc1OC`, the CPE inhibition was inconclusive: 20.2%. For `O=C(Nc1cccc(C(F)(F)F)c1)c1csc(COCCO)n1`, the CPE inhibition was active: 24.3%. For `COCCCNC(=O)[C@]1(Cc2ccccc2N=[N+]=[N-])N=C(c2ccc(OCCCO)cc2)O[C@@H]1c1ccccc1`, the CPE inhibition was inconclusive: 31.8%. In the case of `CO[C@@H]1CN(C)C(=O)c2ccc(NC(C)=O)cc2OC[C@H](C)N(Cc2ccccc2F)C[C@H]1C`, the CPE inhibition is reported as inactive: -4.62%. With `COC(=O)c1c(C)nn(-c2ccc(F)c(Cl)c2)c1-c1cc(C)on1` the CPE inhibition was inconclusive: 43.2%. In the case of `CC(=O)c1ccc(N2CCN(S(=O)(=O)c3c(C(=O)N4CCCC4)c(C)n(C)c3C)CC2)cc1`, the CPE inhibition is reported as inconclusive: 20.3%. For `CCn1c(SCC(=O)N2CCCC2=O)nnc1-c1cccs1`, the CPE inhibition was inconclusive: 22%. With `NC(=O)c1ccccc1NC(=O)c1ccc2ccccc2c1` the CPE inhibition was inconclusive: 35.2%. With `CCCN1C[C@H](C)[C@H](OC)CN(C)C(=O)c2ccc(NC(=O)CC(F)(F)F)cc2OC[C@@H]1C` the CPE inhibition was active: 33.5%. For `COc1ccc(NC(=O)N(C)C[C@@H]2Oc3ccc(NC(=O)Cc4cn(C)c5ccccc45)cc3C(=O)N([C@H](C)CO)C[C@H]2C)cc1`, the CPE inhibition was inconclusive: 50%. In the case of `C[C@H](NC(=O)C[C@@H]1CC[C@H]2[C@@H](COC[C@@H](O)CN2Cc2cc(F)ccc2F)O1)c1ccccc1`, the CPE inhibition is reported as inactive: -2.51%. In the case of `C[C@H](CO)N1C[C@H](C)[C@H](CN(C)S(=O)(=O)c2ccc(Cl)cc2)OCCCC[C@H](C)Oc2ccc(NS(=O)(=O)c3cccs3)cc2C1=O`, the CPE inhibition is reported as inconclusive: 20.9%. In the case of `C/C=C\C(=O)Nc1cccc(C2=NOC3(C2)C[C@@H](C(N)=O)N(C(=O)c2ccc(OC)cc2)C3)c1` (stereo partly specified), the CPE inhibition is reported as active: 22.1%. For `COc1ccc([C@H]2CC(=O)C=C(c3cc4ccccc4c4ccccc34)C2)cc1`, the CPE inhibition was inconclusive: 50.3%. In the case of `CC(=NNC(=S)N1CCN(c2ccccn2)CC1)c1ccccn1`, the CPE inhibition is reported as inactive: 9.72%. With `O=C(CN1CCCc2ccccc21)Nc1ccccc1[N+](=O)[O-]` the CPE inhibition was inactive: 4.07%. For `CC(C)CN(C(=O)COc1ccccc1C(=O)NCc1ccccc1)C1CCS(=O)(=O)C1` (stereo unspecified), the CPE inhibition was inconclusive: 41.5%. With `C[C@@H]1CN([C@H](C)CO)C(=O)c2cccc(NC(=O)C3CCOCC3)c2O[C@H]1CN(C)Cc1ccc(C(F)(F)F)cc1` the CPE inhibition was inconclusive: 46.3%. In the case of `CCOC(=O)c1cc(-c2ccccc2)nn1Cc1cc(CC)no1`, the CPE inhibition is reported as inconclusive: 58.5%. With `O=C(c1ccc(Cl)cc1)C1CCCN(C(=O)/C=C/c2ccccn2)C1` (stereo unspecified) the CPE inhibition was inactive: 0.34%. For `C[C@H](CO)N1C[C@H](C)[C@@H](CN(C)Cc2ccc3c(c2)OCO3)Oc2ccc(N(C)C)cc2C1=O`, the CPE inhibition was active: 23%. With `COc1ccc(-c2noc(CSc3nc4sc(C)c(C)c4c(=O)n3-c3ccccc3)n2)cc1` the CPE inhibition was inconclusive: 43.6%. For `C[C@H](CO)N1C[C@H](C)[C@@H](CN(C)CC2CCOCC2)Oc2cc(C#Cc3cccnc3)ccc2S1(=O)=O`, the CPE inhibition was inconclusive: 34.8%. For `CN1CCCC(OC(=O)c2ccc(Cl)cc2)C1` (stereo unspecified), the CPE inhibition was inconclusive: 21.2%. With `CC(C)CN1CC(C)C(=O)NC1=S` (stereo unspecified) the CPE inhibition was inconclusive: 31.9%. In the case of `CCn1c(COc2cccc(OC)c2)nnc1SCC(=O)NC1CCCC1`, the CPE inhibition is reported as inconclusive: 22.5%. For `O=C(COC(=O)c1cc(S(=O)(=O)N2CCOCC2)ccc1Cl)Nc1ccccc1Cl`, the CPE inhibition was inconclusive: 26.2%. With `Cc1ccc(NC(=O)CNC(=O)CN2C(=O)c3ccccc3C2=O)cc1` the CPE inhibition was inconclusive: 58.5%. In the case of `Cc1ccccc1CN1CCNC(=O)C1CC(=O)O` (stereo unspecified), the CPE inhibition is reported as active: 32.9%. With `Cc1ccc(C2=NCCn3c2c2ccccc2[n+]3[O-])cc1` the CPE inhibition was inconclusive: 45.6%. For `CC(C)(C)OC(=O)N1CCC(NC(=O)c2nc[nH]c2C(=O)NCC(=O)OCc2ccccc2)CC1`, the CPE inhibition was active: 38.3%. In the case of `Cn1cnc(S(=O)(=O)N[C@@H]2CC[C@@H](CC(=O)N3CCN(c4ccccc4)CC3)O[C@@H]2CO)c1`, the CPE inhibition is reported as inactive: -1.26%. With `CCOc1ccc(-n2nnnc2SCC(=O)NC2CCCC2)cc1` the CPE inhibition was inconclusive: 48.8%. With `Cc1noc(C)c1NC(=O)N[C@H]1CC[C@H](CC(=O)NCCCN(C)C)O[C@@H]1CO` the CPE inhibition was inactive: -4%. In the case of `COc1ccc(-c2ccc(NC(=O)c3ccc(Br)o3)cc2)nn1`, the CPE inhibition is reported as inconclusive: 25.2%. In the case of `CCN(C(=O)CSc1nc(-c2cccs2)nc2ccccc12)C1CCS(=O)(=O)C1` (stereo unspecified), the CPE inhibition is reported as inconclusive: 28.5%. With `Cn1cc(C(F)(F)F)nc1-c1ccc(OCC(O)CNCCOc2ccc(O)c(C(N)=O)c2)cc1` (stereo unspecified) the CPE inhibition was inconclusive: 49.5%. In the case of `COc1ccc(-c2ccc([C@H]3[C@H]4C=CC[C@@H](C)[C@@H]4C(=O)N3Cc3ccccc3)c(F)c2)cc1`, the CPE inhibition is reported as inconclusive: 48.3%.

Reference: PubChem BioAssay AID651640 (Broad Institute, 2012)
